Measured values from the supplement of paper PMC8326762, “A Small Molecule Inhibitor of Pex3–Pex19 Interaction Disrupts Glycosome Biogenesis and Causes Lethality in Trypanosoma brucei” (Frontiers in Cell and Developmental Biology, 2021).
Structures can show the parent of a compound that is named as a salt. Some of the results follow. The data scatter; read single values as rough.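 Yeast growth was measured as optical density at 600 nm. Two-hybrid strains grew without histidine, so growth depended on Pex3–Pex19 binding. A compound was trypanosome-selective if it reduced growth of the trypanosome-pair strain by over 65% and of the human-pair strain by under 65%.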

What was measured:
[1] = system: Saccharomyces cerevisiae HF7c pdr5Δ; experiment: general growth inhibition of yeast HF7c pdr5Δ in -Leu -Trp medium, relative to DMSO; higher = stronger general growth inhibition; details: 100 µM; 24 h
[2] = system: human PEX3-PEX19 interaction (yeast two-hybrid); experiment: growth inhibition of yeast two-hybrid strain reporting HsPex3-HsPex19 interaction, relative to DMSO; higher = stronger inhibition of human Pex3-Pex19 interaction / growth; details: 100 µM; 24 h; 3-aminotriazole 10 mM
[3] = system: T. brucei Pex3-Pex19 interaction (yeast two-hybrid); experiment: growth inhibition of yeast two-hybrid strain reporting TbPex3-TbPex19 interaction, relative to DMSO; higher = stronger inhibition of T. brucei Pex3-Pex19 interaction / growth; details: 100 µM; 24 h

Compound | general growth inhibition [1] [%] | growth inhibition [2] [%] | growth inhibition [3] [%]
CCCCN(CC)c1nc(C)nc2c1c(C)cn2-c1c(C)cc(C)cc1C | 44.8 | 22.4 | 21.9
Cn1cnc2c(NCc3ccccc3)nc(NCCO)nc21 [Olomoucine] | 27.3 | 11 | 58.8
CCCn1c(=O)[nH]c(=O)c2[nH]cnc21 [3-n-Propylxanthine] | 55.3 | 43.8 | 65.7
CCOC(=O)c1ncn2c1CN(C)C(=O)c1cc(F)ccc1-2 [Flumazenil] | 33 | 27.2 | 60.8
N=C(N)NCCCCNC(=N)N [Arcaine sulfate] | 38.9 | 33.8 | 45.5
c1ccc(C(NCCNC(c2ccccc2)c2ccccc2)c2ccccc2)cc1 | 46.4 | 42.1 | 57.5
CN1[C@@H]2CC[C@H]1CC(OC(=O)c1c[nH]c3ccccc13)C2 (stereo not given in full) [3-Tropanyl-indole-3-carboxylate hydrochloride] | 44.4 | 40.3 | 59.5
Oc1ccc(O)cc1 [Hydroquinone] | 42 | 37.7 | 62.6
CC(C)NCC(O)COc1ccc(CC(N)=O)cc1 (racemic) [(±)-Atenolol] | 35.7 | 40.7 | 55
CN1CCN(CC(=O)N2c3ccccc3C(=O)Nc3cccnc32)CC1 [Pirenzepine dihydrochloride] | 24.8 | 13.5 | 45
O=c1ccc2ccc(O)c(O)c2o1 [Daphnetin] | 13.7 | 12.6 | 31.4
OC(CCN1CCCCC1)(c1ccccc1)C1CCCCC1 (stereo not given) [Trihexyphenidyl hydrochloride] | 38.6 | 45.6 | 60.2
c1ccc2c(CC3=NCCN3)cccc2c1 [Naphazoline hydrochloride] | 48.5 | 45.7 | 69.5
CC[C@@H]1C(=O)OC[C@@H]1Cc1cncn1C [(+)-Pilocarpine hydrochloride] | 51.6 | 47 | 64.2
Cc1cc(Nc2ncc3cc(-c4c(Cl)cccc4Cl)c(=O)n(C)c3n2)ccc1F | 5.21 | -13.7 | 18.4
Nc1nc(OCc2ccccc2)c2nc[nH]c2n1 [O6-benzylguanine] | 34.6 | 31.9 | 40.7
O=c1cc(-c2ccccc2)oc2c(O)c(O)ccc12 [7,8-Dihydroxyflavone hydrate] | 42.6 | 38.4 | 61.4
CNCCCN1c2ccccc2CCc2ccccc21 [Desipramine hydrochloride] | 41.9 | 34.5 | 69.6
COc1ccc(CCn2nnnc2C2(c3ccc(C)cc3)CC2)cc1 [Mephetyl tetrazole] | 41.3 | 44.8 | 45.9
CC(C)(Sc1ccc(CCN(CCCCC2CCCCC2)C(=O)NC2CCCCC2)cc1)C(=O)O | 36.9 | 25 | 48.1
COc1ccc(CCN(C)CCCC(C#N)(c2ccc(OC)c(OC)c2)C(C)C)cc1OC (racemic) [(±)-Verapamil hydrochloride] | 55.2 | 42 | 67.8
Nc1ncn([C@@H]2O[C@H](CO)[C@@H](O)[C@H]2O)c(=O)n1 [5-azacytidine] | 46.2 | 46.2 | 56.9

Sorted by SMILES length (low to high): 17 of the compounds above
Compound | general growth inhibition [1] [%] | growth inhibition [2] [%] | growth inhibition [3] [%]
Oc1ccc(O)cc1 [Hydroquinone] | 42 | 37.7 | 62.6
N=C(N)NCCCCNC(=N)N [Arcaine sulfate] | 38.9 | 33.8 | 45.5
O=c1ccc2ccc(O)c(O)c2o1 [Daphnetin] | 13.7 | 12.6 | 31.4
c1ccc2c(CC3=NCCN3)cccc2c1 [Naphazoline hydrochloride] | 48.5 | 45.7 | 69.5
CNCCCN1c2ccccc2CCc2ccccc21 [Desipramine hydrochloride] | 41.9 | 34.5 | 69.6
Nc1nc(OCc2ccccc2)c2nc[nH]c2n1 [O6-benzylguanine] | 34.6 | 31.9 | 40.7
CC(C)NCC(O)COc1ccc(CC(N)=O)cc1 (racemic) [(±)-Atenolol] | 35.7 | 40.7 | 55
Cn1cnc2c(NCc3ccccc3)nc(NCCO)nc21 [Olomoucine] | 27.3 | 11 | 58.8
O=c1cc(-c2ccccc2)oc2c(O)c(O)ccc12 [7,8-Dihydroxyflavone hydrate] | 42.6 | 38.4 | 61.4
CCOC(=O)c1ncn2c1CN(C)C(=O)c1cc(F)ccc1-2 [Flumazenil] | 33 | 27.2 | 60.8
CN1CCN(CC(=O)N2c3ccccc3C(=O)Nc3cccnc32)CC1 [Pirenzepine dihydrochloride] | 24.8 | 13.5 | 45
CCCCN(CC)c1nc(C)nc2c1c(C)cn2-c1c(C)cc(C)cc1C | 44.8 | 22.4 | 21.9
CN1[C@@H]2CC[C@H]1CC(OC(=O)c1c[nH]c3ccccc13)C2 (stereo not given in full) [3-Tropanyl-indole-3-carboxylate hydrochloride] | 44.4 | 40.3 | 59.5
Nc1ncn([C@@H]2O[C@H](CO)[C@@H](O)[C@H]2O)c(=O)n1 [5-azacytidine] | 46.2 | 46.2 | 56.9
Cc1cc(Nc2ncc3cc(-c4c(Cl)cccc4Cl)c(=O)n(C)c3n2)ccc1F | 5.21 | -13.7 | 18.4
COc1ccc(CCN(C)CCCC(C#N)(c2ccc(OC)c(OC)c2)C(C)C)cc1OC (racemic) [(±)-Verapamil hydrochloride] | 55.2 | 42 | 67.8
CC(C)(Sc1ccc(CCN(CCCCC2CCCCC2)C(=O)NC2CCCCC2)cc1)C(=O)O | 36.9 | 25 | 48.1

(cont.)

Compound | general growth inhibition [1] [%] | growth inhibition [2] [%] | growth inhibition [3] [%]
NCCS [Cysteamine hydrochloride] | 52.9 | 41.1 | 72.4
C[N+]1(CCCCC[N+]2(C)CCCC2)CCCC1 [Pentolinium di[L(+)-tartrate]] | 39.1 | 43.1 | 56.3
CCN(CC)CC(=O)Nc1c(C)cccc1C [Lidocaine hydrochloride] | 40.4 | 18 | 71.8
NS(=O)(=O)c1cc2c(cc1Cl)N=CNS2(=O)=O [Chlorothiazide] | 46.4 | 45.8 | 65
COc1cc2ncnc(Nc3cccc(Cl)c3)c2cc1OC [Tyrphostin AG 1478] | 41.9 | 33.9 | 43.9
COc1ccccc1OCC(O)CN1CCN(CC(=O)Nc2c(C)cccc2C)CC1 (stereo not given) [Ranolazine dihydrochloride] | 45.4 | 45.5 | 63.5
O=C(O[C@@H]1C[C@@H]2C[C@H]3C[C@H](C1)N2CC3=O)c1c[nH]c2ccccc12 [Dolasetron mesylate hydrate] | 41.7 | 50.4 | 63.7
CCCCCCCC/C=C\CCCCCCCC(=O)NCc1ccc(O)c(OC)c1 [Olvanil] | 36.5 | 27 | 60.9
CN(C)CCC=C1c2ccccc2COc2ccccc21 [Doxepin hydrochloride] | 31.9 | 40 | 55.5
CC(C[N+](C)(C)C)OC(N)=O (stereo not given) [Bethanechol chloride] | 31 | 37.3 | 53.9
CC1=C(C)C(=O)C(CCCCC#CCCCC#CCO)=C(C)C1=O | 77.2 | 64.3 | 67.6
N[C@@H](Cc1c[nH]cn1)C(=O)O [L-Histidine hydrochloride] | 31.7 | 35.3 | 39.5
COc1cc(OC)c(C=C2C(=O)Nc3ccccc32)c(OC)c1 | 60.5 | 30.3 | 61.3
O=NN(CCCl)C(=O)NCCCl [Carmustine] | 50.6 | 40.7 | 69.5
CN1[C@@H](CC(=O)c2ccccc2)CCC[C@H]1C[C@H](O)c1ccccc1 [alpha-Lobeline hydrochloride] | 49.5 | 43 | 73
Nc1nc2ccc(Cl)cc2c2nc(-c3ccco3)nn12 | 22.3 | 27.4 | 33.2
C=CCN1CCc2cc(O)c(O)cc2C(c2ccccc2)C1 (racemic) | 54.8 | 43.8 | 66.3
CN(C)CCCN1c2ccccc2CCc2ccccc21 [Imipramine hydrochloride] | 35.7 | 45.3 | 65.1
CCN(CC)CCCC(C)Nc1c2ccc(Cl)cc2nc2ccc(OC)cc12 (stereo not given) [Quinacrine dihydrochloride] | 11.3 | 0.874 | 42.7
Cc1ccc(S(=O)(=O)/C=C/C#N)cc1 | 91.3 | 88.3 | 84.9
NC(N)=NC(N)=Nc1ccccc1 [1-Phenylbiguanide] | 48 | 40.3 | 68.4
C=C1C(=O)O[C@H]2[C@H]1CC/C(C)=C/CC[C@@]1(C)O[C@@H]21 [Parthenolide] | 76.7 | 68.1 | 67.3

2 of these compounds, set out differently:
Compound	general growth inhibition [1] [%]	growth inhibition [2] [%]	growth inhibition [3] [%]
CN1[C@@H]2CC[C@H]1CC(OC(=O)c1c[nH]c3ccccc13)C2 (stereo not given in full) [3-Tropanyl-indole-3-carboxylate hydrochloride]	44.4	40.3	59.5
Oc1ccc(O)cc1 [Hydroquinone]	42	37.7	62.6

The results go on.

Compound | general growth inhibition [1] [%] | growth inhibition [2] [%] | growth inhibition [3] [%]
CNC(=O)[C@H]1O[C@@H](n2cnc3c(NCc4cccc(I)c4)nc(Cl)nc32)[C@H](O)[C@@H]1O [Chloro-IB-MECA] | 14.2 | -2.22 | 23.9
C[C@H]1O[C@@H](n2cc(F)c(=O)[nH]c2=O)[C@H](O)[C@@H]1O [5-fluoro-5'-deoxyuridine] | 37.9 | 36 | 57.4
COC(=O)C1=CO[C@@H](O)[C@@H]2C(CO)=CC[C@H]12 [Genipin] | 32.9 | 14.6 | 58
CN/C(=N\CCSCc1nc[nH]c1C)NC#N [Cimetidine] | 45.9 | 39.2 | 49.9
CCN1CCCC1CNC(=O)c1cc(S(N)(=O)=O)ccc1OC (single isomer, unassigned; (-)) [(-)-Sulpiride] | 60.7 | 52.1 | 71.8
O=C(O)C1=CC(=C(c2ccc(O)c(C(=O)O)c2)c2ccc(O)c(C(=O)O)c2)C=CC1=O [Aurintricarboxylic acid] | 59 | 50.4 | 61.2
CCCCCCCCCC[Si](C)(C)CCC(=O)NC(Cc1ccc(C)cc1)c1ccccc1 (stereo not given) [Sandoz 58-035] | 46.2 | 36.7 | 53
COCCOC(=O)C1=C(C)NC(C)=C(C(=O)OC(C)C)C1c1cccc([N+](=O)[O-])c1 (stereo not given) [Nimodipine] | 46.9 | 39.2 | 38.5
COc1ccccc1N1CCN(CCCCNC(=O)c2ccc3ccccc3c2)CC1 | 35.1 | 24.2 | 50.8
C[C@]12CCC(=O)C=C1CC[C@@H]1[C@@H]2[C@@H](O)C[C@@]2(C)[C@H]1CC[C@]2(O)C(=O)CO [Hydrocortisone] | 40.4 | 35.3 | 52.7
Nc1ccc2c3c(cccc13)C(=O)NC2=O [4-Amino-1,8-naphthalimide] | 32.9 | 30.4 | 35.2
N=C(NC(=O)c1nc(Cl)c(N)nc1N)Nc1ccccc1 [Phenamil methanesulfonate] | 51.8 | 37.7 | 70
C=Cc1c(C)c2cc3[nH]c(cc4nc(cc5nc(cc1[nH]2)C(C)=C5CCC(=O)O)C(CCC(=O)O)=C4C)c(C)c3C=C [Protoporphyrin IX disodium] | 1.33 | -41.3 | -18.4
CC[C@H]1OC(=O)[C@H](C)[C@@H](O[C@H]2C[C@@](C)(OC)[C@@H](O)[C@H](C)O2)[C@H](C)[C@@H](O[C@@H]2O[C@H](C)C[C@H](N(C)C)[C@H]2O)[C@](C)(O)C[C@@H](C)CN(C)[C@H](C)[C@@H](O)[C@]1(C)O [Azithromycin dihydrate] | 9.56 | 7.23 | 26.6
CN1CCN(C2Cc3ccccc3Sc3ccc(Cl)cc32)CC1 (racemic) [(±)-Octoclothepin maleate] | 20.6 | 11.7 | 48.6
C=CCN1CCc2c(cc(O)c(O)c2Br)[C@@H](c2ccccc2)C1 [R(+)-6-Bromo-APB hydrobromide] | 47.1 | 41.9 | 63.1
CCN[C@H]1CN(CCCOC)S(=O)(=O)c2sc(S(N)(=O)=O)cc21 [Brinzolamide] | 54.5 | 58.5 | 58
O=C(O)CN(CCN(CC(=O)O)CC(=O)O)CCN(CC(=O)O)CC(=O)O [Diethylenetriaminepentaacetic acid] | 46.3 | 38.3 | 60.4
O=C(O)CP(=O)(O)O [Phosphonoacetic acid] | 43.9 | 40.1 | 62.9
Cc1[nH]c(=O)c(C#N)cc1-c1ccncc1 [Milrinone] | 49.9 | 43.4 | 59.6
Oc1cc2c(cc1O)CN(C(=S)NCCc1ccc(Cl)cc1)CCC2 [Capsazepine] | 28.3 | 30.2 | 51.8
